Here are results for one substance from publication doi:10.1101/2021.09.14.460295.

Amino acid sequences for entries named in this document (tags omitted). Residues count along the entry.
UniProt P11021, residues 19-654: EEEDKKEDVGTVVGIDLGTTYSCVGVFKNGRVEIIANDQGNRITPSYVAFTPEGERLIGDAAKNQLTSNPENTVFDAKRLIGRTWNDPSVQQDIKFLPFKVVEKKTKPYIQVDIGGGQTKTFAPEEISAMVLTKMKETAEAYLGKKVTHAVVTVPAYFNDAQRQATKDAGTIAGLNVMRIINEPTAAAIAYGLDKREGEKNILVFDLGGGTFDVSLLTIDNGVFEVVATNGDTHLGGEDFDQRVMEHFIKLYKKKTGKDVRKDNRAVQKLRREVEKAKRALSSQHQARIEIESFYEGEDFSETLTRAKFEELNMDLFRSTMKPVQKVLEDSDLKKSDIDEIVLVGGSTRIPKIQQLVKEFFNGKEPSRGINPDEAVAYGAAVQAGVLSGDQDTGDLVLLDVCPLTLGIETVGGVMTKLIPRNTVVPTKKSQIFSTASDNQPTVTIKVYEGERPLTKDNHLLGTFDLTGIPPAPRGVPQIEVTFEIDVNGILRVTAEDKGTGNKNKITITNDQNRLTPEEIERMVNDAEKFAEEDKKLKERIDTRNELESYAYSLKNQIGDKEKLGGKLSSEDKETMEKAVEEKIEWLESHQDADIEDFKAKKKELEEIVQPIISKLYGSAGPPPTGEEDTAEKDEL
UniProt P02545, residues 1-646: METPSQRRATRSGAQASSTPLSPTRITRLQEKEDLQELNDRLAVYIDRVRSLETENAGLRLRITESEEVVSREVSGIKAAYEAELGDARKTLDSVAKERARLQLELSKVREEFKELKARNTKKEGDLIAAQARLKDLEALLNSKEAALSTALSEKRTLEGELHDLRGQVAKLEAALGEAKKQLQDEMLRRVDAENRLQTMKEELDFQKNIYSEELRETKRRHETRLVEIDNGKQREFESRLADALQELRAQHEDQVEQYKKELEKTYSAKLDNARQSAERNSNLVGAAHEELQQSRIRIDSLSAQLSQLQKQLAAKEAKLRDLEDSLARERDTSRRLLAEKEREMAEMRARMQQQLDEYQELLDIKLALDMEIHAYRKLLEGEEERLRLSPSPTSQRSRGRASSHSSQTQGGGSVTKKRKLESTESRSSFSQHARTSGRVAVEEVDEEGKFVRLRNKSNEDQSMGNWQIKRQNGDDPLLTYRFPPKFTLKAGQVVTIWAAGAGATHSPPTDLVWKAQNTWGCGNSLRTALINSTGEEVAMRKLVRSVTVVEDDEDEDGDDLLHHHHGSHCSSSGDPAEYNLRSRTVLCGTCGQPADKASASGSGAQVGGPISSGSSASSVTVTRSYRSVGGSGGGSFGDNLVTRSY

No constants are given. Whether binding was seen depends on the method and setting. Binding seen in cells or lysates may run through a third protein.

This test concerns the target GRP78/BiP (78-kDa glucose-regulated protein) (human (endogenous in hTERT-immortalized dermal fibroblasts)) (UniProt P11021). Put plainly: co-IP.

For GFP-lamin A (from UniProt P02545 1-646), the binding entry is recorded as “no binding”.
